Construct, isoform or probe ends are uncertain for at least one entry. Results from cells or extracts need not show a direct contact. For some assays here: At least one verdict was read from the data and is not stated in words by the source.
What was measured:
[1] = system: NF1 (nuclear factor 1, family member not resolved by antibody) (human (L02 cells)); test: EMSA; details: labeled positive control, complex at same position as -462 G complex; Binding buffer 100 mM Tris, 500 mM KCl, 10 mM DTT; 20 ul), 1 ug poly(dI-dC), 10 ug L02 nuclear extract, 10 fmol probe; protein in an extract; label: 5'-biotin (unlabeled as competitor)
[2] = system: NF1 (nuclear factor 1, family member not resolved by antibody) (human (L02 cells)); test: competition with a labelled probe; details: 200-fold unlabeled NF1 consensus fully competed with labeled -462 G; Binding buffer 100 mM Tris, 500 mM KCl, 10 mM DTT; 20 ul), 1 ug poly(dI-dC), 10 ug L02 nuclear extract, 10 fmol probe; protein in an extract; label: 5'-biotin (unlabeled as competitor)

GGGCTAGATGGCTGCCAGCCAAGGCTTCAT (double strand) [NF1 consensus]
binding result [1]: binds
binding result [2]: binds

Source: paper PMC3335092
